The values below are quoted from earlier work in PMC8983078 (Drug Discovery Today, 2022).

The conditions of data set [1]: rats; might be linked to the induction of PLD; cited from earlier work.
For data set [2] the following is noted: patient with long-term administration of a daily low dose; cited from earlier work.

On to `CCCCc1oc2ccccc2c1C(=O)c1cc(I)c(OCCN(CC)CC)c(I)c1` [amiodarone], for which the pulmonary toxicity entry in data set [1] is given as “pulmonary toxicity”. Moreover, the liver toxicity entry in data set [2] is “induce liver cirrhosis accompanying PLD”.
